Laboratory results from publication PMC4691244.
These are yes or no findings as the source states them, for the method shown. In cells and extracts the contact can be indirect. Some results given as binding are weak or reduced against the parent protein; the word gives no strength.

How the values were obtained:
[1] = molecular target: T1, hRRP6 (human (endogenous in HEK293T)) (UniProt Q01780); assay: co-IP; reciprocal immunoprecipitation of endogenous DGCR8 and endogenous hRRP6, western blot; in the presence or absence of RNase A
T1 sequence: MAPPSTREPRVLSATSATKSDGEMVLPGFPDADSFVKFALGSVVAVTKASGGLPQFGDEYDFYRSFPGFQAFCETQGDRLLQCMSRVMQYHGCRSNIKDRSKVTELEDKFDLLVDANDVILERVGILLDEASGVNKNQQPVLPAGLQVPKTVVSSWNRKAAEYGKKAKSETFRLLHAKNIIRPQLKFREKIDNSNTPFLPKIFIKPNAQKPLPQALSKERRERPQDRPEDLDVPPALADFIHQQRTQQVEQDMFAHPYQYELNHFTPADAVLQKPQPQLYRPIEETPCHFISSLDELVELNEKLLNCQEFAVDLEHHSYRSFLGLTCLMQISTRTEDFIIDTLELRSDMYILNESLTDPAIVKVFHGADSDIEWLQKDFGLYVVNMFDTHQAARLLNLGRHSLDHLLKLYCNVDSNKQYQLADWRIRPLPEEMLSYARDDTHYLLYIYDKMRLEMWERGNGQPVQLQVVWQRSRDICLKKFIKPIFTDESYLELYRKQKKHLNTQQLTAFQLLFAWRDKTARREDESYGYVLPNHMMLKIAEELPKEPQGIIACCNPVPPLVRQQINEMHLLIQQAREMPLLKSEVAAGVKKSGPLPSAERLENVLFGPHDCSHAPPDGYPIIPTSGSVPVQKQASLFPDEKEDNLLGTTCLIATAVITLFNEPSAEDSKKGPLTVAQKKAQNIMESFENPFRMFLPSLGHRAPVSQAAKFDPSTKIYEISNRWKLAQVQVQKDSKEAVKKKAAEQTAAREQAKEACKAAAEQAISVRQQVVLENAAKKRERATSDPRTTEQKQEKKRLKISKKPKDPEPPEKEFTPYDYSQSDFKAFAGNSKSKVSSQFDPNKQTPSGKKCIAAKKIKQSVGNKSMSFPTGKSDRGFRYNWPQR

[2] = molecular target: T2, mouse RRP6 (mouse (endogenous in mouse embryonic stem cells)) (UniProt P56960); assay: co-IP; immunoprecipitation of endogenous RRP6 from mouse embryonic stem cells (Dgcr8+/+ and Dgcr8-/-), western blot of copurified DGCR8
T2 sequence: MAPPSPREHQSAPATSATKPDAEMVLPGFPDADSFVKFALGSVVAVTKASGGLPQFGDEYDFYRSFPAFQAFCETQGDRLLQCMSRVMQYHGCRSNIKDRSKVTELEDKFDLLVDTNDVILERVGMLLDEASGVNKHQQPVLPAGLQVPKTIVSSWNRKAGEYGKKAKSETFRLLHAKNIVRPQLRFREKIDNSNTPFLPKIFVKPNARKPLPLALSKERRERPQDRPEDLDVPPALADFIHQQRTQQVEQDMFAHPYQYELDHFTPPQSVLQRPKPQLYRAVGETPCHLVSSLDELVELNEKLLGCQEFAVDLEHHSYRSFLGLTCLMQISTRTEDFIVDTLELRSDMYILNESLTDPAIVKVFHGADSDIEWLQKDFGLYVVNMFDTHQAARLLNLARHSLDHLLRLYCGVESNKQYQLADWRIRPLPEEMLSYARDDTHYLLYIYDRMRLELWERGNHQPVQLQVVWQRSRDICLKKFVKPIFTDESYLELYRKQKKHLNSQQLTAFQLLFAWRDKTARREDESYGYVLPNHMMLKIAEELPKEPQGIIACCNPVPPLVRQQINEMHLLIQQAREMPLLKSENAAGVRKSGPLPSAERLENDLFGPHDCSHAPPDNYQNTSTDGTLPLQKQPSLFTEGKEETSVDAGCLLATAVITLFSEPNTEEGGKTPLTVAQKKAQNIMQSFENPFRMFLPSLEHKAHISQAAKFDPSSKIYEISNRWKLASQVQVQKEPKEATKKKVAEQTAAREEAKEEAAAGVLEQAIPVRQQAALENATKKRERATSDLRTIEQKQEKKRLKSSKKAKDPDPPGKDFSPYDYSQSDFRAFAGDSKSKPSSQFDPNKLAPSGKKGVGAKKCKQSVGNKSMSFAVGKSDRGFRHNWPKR

| Binder | binding [1] | binding [2] |
| --- | --- | --- |
| DGCR8 (endogenous) (protein, UniProt Q8WYQ5 1-773) METDESPSPLPCGPAGEAVMESRARPFQALPREQSPPPPLQTSSGAEVMDVGSGGDGQSELPAEDPFNFYGASLLSKGSFSKGRLLIDPNCSGHSPRTARHAPAVRKFSPDLKLLKDVKISVSFTESCRSKDRKVLYTGAERDVRAECGLLLSPVSGDVHACPFGGSVGDGVGIGGESADKKDEENELDQEKRVEYAVLDELEDFTDNLELDEEGAGGFTAKAIVQRDRVDEEALNFPYEDDFDNDVDALLEEGLCAPKKRRTEEKYGGDSDHPSDGETSVQPMMTKIKTVLKSRGRPPTEPLPDGWIMTFHNSGVPVYLHRESRVVTWSRPYFLGTGSIRKHDPPLSSIPCLHYKKMKDNEEREQSSDLTPSGDVSPVKPLSRSAELEFPLDEPDSMGADPGPPDEKDPLGAEAAPGALGQVKAKVEVCKDESVDLEEFRSYLEKRFDFEQVTVKKFRTWAERRQFNREMKRKQAESERPILPANQKLITLSVQDAPTKKEFVINPNGKSEVCILHEYMQRVLKVRPVYNFFECENPSEPFGASVTIDGVTYGSGTASSKKLAKNKAARATLEILIPDFVKQTSEEKPKDSEELEYFNHISIEDSRVYELTSKAGLLSPYQILHECLKRNHGMGDTSIKFEVVPGKNQKSEYVMACGKHTVRGWCKNKRVGKQLASQKILQLLHPHVKNWGSLLRMYGRESSKMVKQETSDKSVIELQQYAKKNKPNLHILSKLQEEMKRLAEEREETRKKPKMSIVASAQPGGEPLCTVDV | binds | – |
| mouse DGCR8 (protein, UniProt Q9EQM6 1-773) METYESPSPLPREPAGEAMMENRACPFQVLPHEQSPPPPLQTSSDAEVMDVGSGGDGQSEPPADDPFNFYGASLLSKGSFSKGRLLIDPNCSGHSPRTARHAPAVRKFSPDLKLLKDVKISVSFTESCRSKDRKVLYTGVERSTRPECGQLLSPVSGDVHACPFGGSVGNGVGLGGESADKKDEENELDQEKRVEYAVLDELEDFTDNLELDEEGTGGFTAKAIVQRDRVDEEALNFSYEDDFDNDVDALLEEGLCAPKKRRMEEKYGGDSDHPSDGETSVQPMMTKIKTVLKSRGRPPTEPLPDGWIMTFHNSGVPVYLHRESRVVTWSRPYFLGTGSIRKHDPPLSSIPCLHYKKMKDNEEREQNCDLAPSGEVSPVKPLGRSAELDFPLEEPDSMGGDSGSMDEKDPLGAEAAAGALGQVKAKVEVCKDESVDLEEFRNYLEKRFDFEQVTVKKFRTWAERRQFNREMKRKQAESERPILPANQKLITLSVQDAPTKKEFVINPNGKSEVCILHEYMQRVLKVRPVYNFFECENPSEPFGASVTIDGVTYGSGTASSKKLAKNKAARATLEILIPDFVKQTSEEKPKDSEELEYFNHISIEDSRVYELTSKAGLLSPYQILHECLKRNHGMGDTSIKFEVVPGKNQKSEYVMACGKHTVRGWCKNKRVGKQLASQKILQLLHPHVKNWGSLLRMYGRESSKMVKQETSDKSVIELQQYAKKNRPNLHILSKLQEEMKRLAAEREETRKKPKMSIVASAQPGGEPLCTVDV | – | binds |
